Assay results as given in US7291612B2, “Immunomodulatory compounds” (Active Biotech A.B., priority 2002, dated 2007).
Structures were worked out from names or drawings and are uncertain.

The chains behind the UniProt entries cited, without tags or fusion partners. Residues count along the entry.
UniProt P33681, 35-242 limits assumed: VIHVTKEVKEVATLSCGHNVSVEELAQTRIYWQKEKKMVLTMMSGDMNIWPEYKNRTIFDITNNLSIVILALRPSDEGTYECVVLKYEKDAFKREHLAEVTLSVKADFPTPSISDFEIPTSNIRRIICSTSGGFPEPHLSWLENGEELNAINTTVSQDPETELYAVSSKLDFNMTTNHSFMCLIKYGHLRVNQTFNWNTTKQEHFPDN

Molecular target: CD80-CD28 interaction (Homo sapiens, UniProt P33681)
Experiment: cell free Homogenous Time Resolved Fluorescence (HTRF) assay, inhibition of the CD80-CD28 interaction
Settings: read-out: Activity (EC50 in summary form), 4 hours at room temperature

EC50: < 1000 nM
SMILES: CC(C)NC(=O)Nc1ccc(-n2nc3c4cccc(F)c4[nH]cc-3c2=O)cc1
